# Reference: PMC6467423
# Sequences of proteins named here, by UniProt entry; tags and fusion partners are left off.
# UniProt O64645: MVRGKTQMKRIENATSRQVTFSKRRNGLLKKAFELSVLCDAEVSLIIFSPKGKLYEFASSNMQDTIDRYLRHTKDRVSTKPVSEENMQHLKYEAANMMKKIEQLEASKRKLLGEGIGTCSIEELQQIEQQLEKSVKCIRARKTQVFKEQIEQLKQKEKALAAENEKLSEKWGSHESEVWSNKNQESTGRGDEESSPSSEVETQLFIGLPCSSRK
# Results are given in words; binding and its absence hold for the method and conditions named. Binding seen in cells or lysates may run through a third protein. Some results given as binding are weak or reduced against the parent protein; the word gives no strength. Tags and fused reporters may be left off the sequences shown.
# Molecular target: T1, GFP:rSPL9 (SQUAMOSA PROMOTER BINDING PROTEIN-LIKE 9) (Arabidopsis thaliana) (UniProt Q700W2)
# T1 sequence: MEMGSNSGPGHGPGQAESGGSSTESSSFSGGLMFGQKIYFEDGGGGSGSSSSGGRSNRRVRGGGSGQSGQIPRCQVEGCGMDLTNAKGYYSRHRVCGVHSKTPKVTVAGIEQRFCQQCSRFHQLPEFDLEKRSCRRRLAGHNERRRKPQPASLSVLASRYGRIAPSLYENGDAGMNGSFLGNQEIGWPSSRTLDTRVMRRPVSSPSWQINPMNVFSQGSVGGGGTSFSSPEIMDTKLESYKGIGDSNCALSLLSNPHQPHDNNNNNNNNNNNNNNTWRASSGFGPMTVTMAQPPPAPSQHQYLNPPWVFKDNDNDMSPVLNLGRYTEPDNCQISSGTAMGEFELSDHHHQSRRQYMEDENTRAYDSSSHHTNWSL
# Assay: co-IP; in vivo co-immunoprecipitation from protein extracts of shoot apical tissue of SPL9::GFP:rSPL9 35S::SOC1:MYC(9x) plants; 1 mg protein for immunoprecipitation
substance,measurement,value
SOC1:MYC(9x) (SUPPRESSOR OF OVEREXPRESSION OF CONSTANS 1) (from UniProt O64645 1-214),binding,binds
